Measured values published in PubChem BioAssay AID493014 (National Center for Advancing Translational Sciences (NCATS), 2011).
This is one part of the list. The main result of the screen is listed elsewhere. These columns were measured beside it and carry no call. Compounds called inactive in the main read-out are mostly missing here. Potencies come from curve fits of mixed quality, noted in brackets.

Experiment: qHTS Assay to Find Inhibitors of Chronic Active B-Cell Receptor Signaling
Conditions: ABC-DLBCL IkBa-CBG/CBR reporter, luminescence ratio (green luciferase fused to IkBa over red control in TMD8 lymphoma cells), 4 h
In short: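 Concentration-response series (up to 46 uM) were applied to TMD8 dual-reporter cells for 4 h at 37C with doxycycline. Green/red ratio, after filter-overlap correction, defined %Activity; red signal alone was normalised to basal cells and zero luminescence.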

[1] = measured here: CBR red luminescence, cell number
[2] = measured here: IkBa-CBG green luminescence

Row | Compound | AC50 [1] | AC50 [2]
1 | S=C(N=Nc1ccccc1)NNc1ccccc1 | 23.1 µM [rising, single point] | –
2 | O=C(CCl)NC(=O)NC12CC3CC(CC(C3)C1)C2 | 6.51 µM [falling, partial curve] | –
3 | Cc1c(N=Cc2c(O)n(C3CCCCC3)c(=O)[nH]c2=O)c(=O)n(-c2ccccc2)n1C | 1.12 µM [rising, full curve, poor fit] | –
4 | O=C(CN1C(=O)C2CC=CCC2C1=O)Nc1nc(-c2ccc(F)c(F)c2)cs1 (stereo not given) | 16.4 µM [falling, partial curve, poor fit] | –
5 | N/C(=N\OC(=O)C1CCCCC1)c1ccc(Br)cc1 | 11.2 µM [rising, partial curve, poor fit] | –
6 | Cc1ccc(OCc2nc(-c3cccs3)no2)c([N+](=O)[O-])c1 | 0.631 µM [rising, full curve, poor fit] | –
7 | CCc1nnnn1-c1ccc([N+](=O)[O-])cc1C | 22.4 µM [rising, single point] | –
8 | Cc1ccc(C(=O)OCC(=O)Nc2ccc3c(c2)OCO3)c(O)c1 | 1.3 µM [rising, partial curve, poor fit] | –
9 | CCN(CC)c1ccc(NC(=O)c2ccc3c(c2)OCO3)cc1 | 8.91 µM [falling, partial curve, poor fit] | –
10 | Cc1cccc(/N=C/c2c(O)[nH]c3ccccc23)n1 | 17.8 µM [falling, single point] | –
11 | COc1ccc(N=NC2=C(O)CC(C)(C)CC2=O)cc1 | 35.5 µM [falling, single point] | –
12 | COc1cccc2cc(CC(=O)c3ccc(C)cc3C)c(=O)oc12 | 2 µM [falling, partial curve, poor fit] | –
13 | COc1ccc(/C=N/n2cnc3scc(-c4cccs4)c3c2=O)cc1OC | 3.66 µM [rising, partial curve, poor fit] | –
14 | CC1(C)Cc2c(C#N)c(SCC(=O)c3ccccc3)nc(N3CCOCC3)c2CO1 | 0.282 µM [rising, full curve, poor fit] | –
15 | CCCCC12CN3CCN(CC(C3)/C1=N\NC(=O)c1ccccc1N)C2 | 25.9 µM [falling, partial curve] | –
16 | CCc1nc2ccccc2c(C(=O)OCc2nc3ccccc3c(=O)[nH]2)c1C | 8.2 µM [rising, full curve, poor fit] | 4.61 µM [falling, partial curve]
17 | COc1ccc(SCCc2ccncc2)cc1 | 31.6 µM [rising, single point] | –
18 | CCCCN(C)Cc1c(O)ccc2c(-c3ccccc3)cc(=O)oc12 | 20.6 µM [falling, single point] | –
19 | CCC(=O)Nc1cccc(C2=NOC3(C2)C[C@@H](C(N)=O)N(C(=O)c2cc([N+](=O)[O-])cc([N+](=O)[O-])c2)C3)c1 (stereo not given in full) | 35.5 µM [rising, single point] | –
20 | COc1ccc(CCNC(=O)/C=C\c2ccccc2)cc1OC | 29.1 µM [rising, single point] | –
21 | N/C(=N\OC(=O)CCc1ccccc1)c1ccc(Br)cc1 | 0.282 µM [rising, full curve, poor fit] | –

Another view of part of the listing above:
Row	Compound	AC50 [1]	AC50 [2]
1	S=C(N=Nc1ccccc1)NNc1ccccc1	23.1 µM [rising, single point]	–
2	O=C(CCl)NC(=O)NC12CC3CC(CC(C3)C1)C2	6.51 µM [falling, partial curve]	–
3	Cc1c(N=Cc2c(O)n(C3CCCCC3)c(=O)[nH]c2=O)c(=O)n(-c2ccccc2)n1C	1.12 µM [rising, full curve, poor fit]	–
4	O=C(CN1C(=O)C2CC=CCC2C1=O)Nc1nc(-c2ccc(F)c(F)c2)cs1 (stereo not given)	16.4 µM [falling, partial curve, poor fit]	–
5	N/C(=N\OC(=O)C1CCCCC1)c1ccc(Br)cc1	11.2 µM [rising, partial curve, poor fit]	–
6	Cc1ccc(OCc2nc(-c3cccs3)no2)c([N+](=O)[O-])c1	0.631 µM [rising, full curve, poor fit]	–
7	CCc1nnnn1-c1ccc([N+](=O)[O-])cc1C	22.4 µM [rising, single point]	–
8	Cc1ccc(C(=O)OCC(=O)Nc2ccc3c(c2)OCO3)c(O)c1	1.3 µM [rising, partial curve, poor fit]	–
9	CCN(CC)c1ccc(NC(=O)c2ccc3c(c2)OCO3)cc1	8.91 µM [falling, partial curve, poor fit]	–
10	Cc1cccc(/N=C/c2c(O)[nH]c3ccccc23)n1	17.8 µM [falling, single point]	–
11	COc1ccc(N=NC2=C(O)CC(C)(C)CC2=O)cc1	35.5 µM [falling, single point]	–
12	COc1cccc2cc(CC(=O)c3ccc(C)cc3C)c(=O)oc12	2 µM [falling, partial curve, poor fit]	–
13	COc1ccc(/C=N/n2cnc3scc(-c4cccs4)c3c2=O)cc1OC	3.66 µM [rising, partial curve, poor fit]	–
14	CC1(C)Cc2c(C#N)c(SCC(=O)c3ccccc3)nc(N3CCOCC3)c2CO1	0.282 µM [rising, full curve, poor fit]	–
15	CCCCC12CN3CCN(CC(C3)/C1=N\NC(=O)c1ccccc1N)C2	25.9 µM [falling, partial curve]	–

Later entries:

Row | Compound | AC50 [1] | AC50 [2]
22 | COCCN=C1NN=C(c2ccc(NC(C)=O)cc2)CS1 | 15.8 µM [rising, single point] | –
23 | Fc1ccc(-c2nnc(-c3ccc(F)cc3)o2)cc1 | 22.4 µM [rising, partial curve, poor fit] | –
24 | Nc1ncnc(N2CCc3ccccc32)c1[N+](=O)[O-] | 4.47 µM [falling, partial curve, poor fit] | –
25 | COc1ccc(C)c(S(=O)(=O)Nc2ccc(OCC(=O)O)cc2)c1 | 6.51 µM [falling, single point] | –
26 | CC(C)(C)c1ccc(OCCNC(=O)c2ncn[nH]2)cc1 | 20.6 µM [rising, single point] | –
27 | CC(OC(=O)CN1C(=O)C2CC=CCC2C1=O)C(=O)Nc1ccc(F)cc1Cl (stereo not given) | 11.2 µM [rising, single point] | –
28 | O=C(CN1C(=O)NC2(CCCCCCC2)C1=O)Nc1cccc(Br)c1 | 8.2 µM [falling, single point] | –
29 | COc1ccc2nc(SCC(=O)Nc3ccc4[nH]c(=O)[nH]c4c3)[nH]c2c1 | 0.82 µM [rising, full curve, poor fit] | –
30 | CCOc1cc2[nH]c(=S)n(CCCN3CCOCC3)c(=O)c2cc1OCC | 0.092 µM [falling, full curve, poor fit] | –
31 | COc1ccccc1NC(=O)CCN1C(=O)/C(=C\c2cc(OC)c(OC)c(OC)c2)SC1=S | 0.0891 µM [rising, full curve, poor fit] | –
32 | CCC(C)Oc1cccc(OCCCCN2C(=O)NC(C)(C)C2=O)c1 (stereo not given) | 0.13 µM [rising, partial curve, poor fit] | –
33 | CCOc1ccc(C(=O)/C=C/c2ccc(SC)cc2)cc1 | 17.8 µM [falling, single point] | –
34 | COc1ccccc1/C=C/C(=O)OCc1nc2ccccc2c(=O)[nH]1 | 11.2 µM [falling, partial curve, poor fit] | –
35 | CCCc1cc(-c2[nH]ncc2-c2ccc3c(c2)OCCCO3)c(O)cc1O | 11.2 µM [falling, partial curve] | –
36 | O=C(NCc1ccco1)C(c1ccco1)N(CCc1ccccc1)C(=O)Cn1nnc2ccccc21 (stereo not given) | 20 µM [falling, single point] | –
37 | C/C(=N\NC(=O)c1ccc(NS(=O)(=O)c2cccs2)cc1)c1ccncc1 | 10 µM [falling, partial curve] | –
38 | CN1CCCN(C(=O)c2cc(-c3ccc(Cl)c(Cl)c3Cl)nc3ccccc23)CC1 | 10 µM [falling, partial curve] | –
39 | COC(=O)c1ccccc1NC(=O)c1ccc2c(c1)OCCCO2 | 10 µM [falling, partial curve, poor fit] | –
40 | CC(=O)c1cc(-c2ccccc2)n(CCC(=O)NCc2cccs2)c1C | 5.17 µM [rising, full curve, poor fit] | –
41 | O=C(N/N=C/c1ccccc1OC(=O)N1CCOCC1)c1cccs1 | 12.6 µM [falling, partial curve] | –
42 | CCCCSCCCNC(=O)c1ccc(CS(=O)(=O)c2ccccc2OC)o1 | 6.31 µM [falling, single point] | –

Row | Compound | AC50 [1] | AC50 [2]
43 | CC(C)c1nnc(NC(=O)CCS(=O)(=O)c2nc(-c3cccs3)cc(C(F)(F)F)n2)s1 | 7.94 µM [falling, partial curve] | –
44 | CC1=C(C(=O)N2CCOCC2)C(c2ccsc2)C2=C(CCCC2=O)N1 (stereo not given) | 23.1 µM [rising, partial curve, poor fit] | –
45 | Cn1c(=O)c2c(ncn2CC(=O)OCC(=O)Nc2ccc(Cl)cc2)n(C)c1=O | 0.366 µM [rising, full curve, poor fit] | –
46 | COc1ccccc1NC(=O)Cc1nn(C)c(=O)c2ccccc12 | 20.6 µM [falling, partial curve] | –
47 | Cn1c2ccccc2c2c(C(=O)N3CCN(c4ccc(F)cc4)CC3)cn(C3CCCC3)c(=O)c21 | 35.5 µM [falling, single point] | –
48 | COCCOC(=O)/C=C1/NC(=O)CS1 | 29.1 µM [falling, partial curve, poor fit] | –
49 | COc1ccc(C2/C=C\CN(C(=O)C3CCCC3)[C@H](Cc3ccccc3)C(=O)N2Cc2ccc(F)cc2)cc1 (stereo not given in full) | 11.2 µM [falling, single point] | –
50 | Nc1nc(-c2ccc(-n3nncc3-c3ccco3)cc2)cs1 | 35.5 µM [falling, single point] | –
51 | CCCCCCCCOC(=O)c1c(CSC(=N)N)n(C)c2cc(Br)c(OC(C)=O)cc12 | 5.62 µM [rising, single point] | –
52 | O=C(O)CCCCCCCCc1cn(CC2CCCCC2)nn1 | 0.631 µM [rising, full curve] | –
53 | Cc1ccccc1OCC(=O)Nc1nc2ccccc2[nH]1 | 11.2 µM [falling, partial curve] | –
54 | Nc1nc(Nc2ccc(Cl)cc2)nc(NCc2ccco2)c1[N+](=O)[O-] | 12.6 µM [rising, partial curve] | –
55 | COc1ccc(OCC(=O)Nc2ccccc2OC(F)F)cc1 | 9.2 µM [falling, full curve, poor fit] | –
56 | Cn1c(=O)[nH]c(=O)c2c1nc(SCC(=O)O)n2Cc1ccccc1 | 35.5 µM [rising, partial curve, poor fit] | –
57 | O=C1CCN(CCc2ccccc2)CCN1[C@H](CSc1ccccc1)Cc1ccccc1 | 35.5 µM [falling, single point] | 14.1 µM [rising, partial curve, poor fit]
58 | COC(=O)c1cccc2c1-c1ccccc1/C2=N\NC(N)=O | 8.91 µM [falling, partial curve, poor fit] | –
59 | CCOc1ccccc1N(C(=O)Nc1ccc(Cl)cc1)C1=NCCS1 | 4.61 µM [rising, full curve, poor fit] | –
60 | CC1(C(=O)OCC(=O)Nc2ccc(Cl)cn2)CC1(Cl)Cl (stereo not given) | 18.4 µM [falling, single point] | –
61 | CC(=O)c1c(C)[nH]c(C(=O)Nc2nc(-c3ccc(-c4ccccc4)cc3)cs2)c1C | 32.6 µM [rising, partial curve, poor fit] | –
62 | CC1CCN(c2ncnc3c2cnn3-c2ccccc2)CC1 | 0.731 µM [rising, partial curve, poor fit] | –
63 | O=[N+]([O-])c1cc(/C=N/N2CCCCC2)ccc1Cl | 7.08 µM [rising, partial curve, poor fit] | –
